Assay results from the supplement of paper PMC7125110.
± gives the standard error. The uncertainty is large for many entries.

B1: glmS ribozyme (parent)
chain: AUAAAAGCGCCAGAACUACAGAAAUGUAGUUGACGAGGAGGAGGUUUAUCGAAUUUUCGGCGGAUGCCUCCAAA

Variants of: B1
Experiment: self-cleavage kobs at 640 uM GlcN6P; higher = faster cleavage; RNA array
Conditions: with glucosamine-6-phosphate
In short: (§1)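 Barcoded ribozyme variants, transcribed in situ by E. coli RNA polymerase on sequenced MiSeq chips, were followed via a hybridised Cy3 probe at 37 °C. Glucosamine-6-phosphate ranged from 40 μM to 10 mM in HEPES/KCl/Mg(OAc)2 buffer. kobs came from decay fits to per-tile medians, and kcat and KM from weighted Michaelis–Menten fits.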

| Variant | self-cleavage kobs at 640 uM GlcN6P [s⁻¹] |
| --- | --- |
| AUAAAAGCGCCAGUACUACAGAAAUGUAGUUGACGAGGAGGAGGUUUAUCGAAUUUACGGCGGAUUCAUCCAAA [A14U U57A G66U C68A] | 0.000155 ± 0.0001 |
| AUAAAAGCGCCAGCACUACAGAAAUGUAGUUGACGAGGAGGAGGUUUAUCGAAUUUUUGGCGGAUGCCUCCAAA [A14C C58U] | 2.35e-05 ± 2.1e-05 |
| AUAAAAGCGCCAGACCUACAGAAAUGUAGUUGACGAGGAGGAGGUUUAUCGUAUUUUCGGCGGAUGCCUCCAAA [A15C A52U] | 2.41e-05 ± 1.9e-05 |
| AUAAAAGCGCCAGUACUACAGAAAUGUAGUUGACGAGGACGAGGUUUAUCGAAUUUUCGGCGGAUCCCUCCAAA [A14U G40C G66C] | 2.4e-05 ± 1.3e-05 |
| AUAAAAGCGCCAUAACUACAGAAAUGUAGUUGACGAGGAGGAGGUUUACAGAAUUUUCAGCGGAUGCCUGCAAA [G13U U49C C50A G59A C70G] | 2.75e-05 ± 2e-05 |
| AUAAAAGCGCCAGUACUACAGAAAUGUAGUUGACGAGGAGGAGGUUUAUCGAAAUAUCGGCGGAUGCAUCCAAA [A14U U54A U56A C68A] | 2.85e-05 ± 2.6e-05 |
| AUAAAAGCGCCAGGACUACAGAAAUGUAGUUGACGUGGAGGAGGUUUAUCGAAUUUUCGGCGGAUGCGUCCAAA [A14G A36U C68G] | 3.1e-05 ± 2.6e-05 |
| AUAAAAGCGCCAGGACUACAGAAAUGUAGUUGACGUGGAGGAGGUUUAUCGAAUUAUCGGCGGAUGACUGCAAA [A14G A36U U56A C67A C70G] | 2.95e-05 ± 2.7e-05 |
| AUAAAAGCGCCAGUACUACAGAAAUGUAGUUGACGAGGAGGAGGUUUCUCGAAUUUUCGGCGGAUGCCUCCAAA [A14U A48C] | 2.27e-05 ± 1.5e-05 |
| AUAAAAGCGCCAGUACUACAGAAAUGUAGCUAACGAGGAGGAGGUUUAUCGAAUUUUUGGCGGAUGCCUCCAAA [A14U U30C G32A C58U] | 5.62e-05 ± 3e-05 |
| AUAAAAGCGCCAGUUUUACAGAAAUGUAGUUGACGAGGAGGAGGUUUAUCGAAUUUUCGGCGGAUGCCUCCAAA [A14U A15U C16U] | 3.77e-05 ± 2.1e-05 |
| AUAAAAGCGCCAGUACUACAGAAAUGUAGUUGACGAGGAAGAGGUCUAUCGAAUUUUCGGCGGAUGCCUCCAAA [A14U G40A U46C] | 3.93e-05 ± 2.1e-05 |
| AUAAAAGCGCCAGGACUACAGAAAUGUAGUCGACGAGGAGGAGGUUUAUCGAAUUUUCGGCGGAUGCCUCAAAA [A14G U31C C71A] | 0.00136 ± 0.00071 |
| AUAAAAGCGCCAGACCUACAGAAAUGUAGUUGACGAGGAGGAGGUUUAUCGAAUUUUCGGCGGAUCCCUCCAAA [A15C G66C] | 2.65e-05 ± 2.4e-05 |
| AUAAAAGCGCCAGACCUACAGAAAUGUAGACGACGAGGAGGAGGUUUUUCGAAUUUUCGGCGGAUGCCUCCAAA [A15C U30A U31C A48U] | 2.3e-05 ± 2e-05 |
| AUAAAAGCGCCAGUACUACAGAAAUGUAGUUGACGAGGAGGAGGUUUAUCGAAUUUUCGGCGGAUGCCAACAAA [A14U U69A C70A] | 4.6e-05 ± 2.4e-05 |

Rewritten with each value named: entries from further up
AUAAAAGCGCCAUAACUACAGAAAUGUAGUUGACGAGGAGGAGGUUUACAGAAUUUUCAGCGGAUGCCUGCAAA [G13U U49C C50A G59A C70G]
  self-cleavage kobs at 640 uM GlcN6P [s⁻¹]: 2.75e-05 ± 2e-05
AUAAAAGCGCCAGGACUACAGAAAUGUAGUCGACGAGGAGGAGGUUUAUCGAAUUUUCGGCGGAUGCCUCAAAA [A14G U31C C71A]
  self-cleavage kobs at 640 uM GlcN6P [s⁻¹]: 0.00136 ± 0.00071
AUAAAAGCGCCAGUACUACAGAAAUGUAGUUGACGAGGAGGAGGUUUAUCGAAUUUUCGGCGGAUGCCAACAAA [A14U U69A C70A]
  self-cleavage kobs at 640 uM GlcN6P [s⁻¹]: 4.6e-05 ± 2.4e-05

Next part

| Variant | self-cleavage kobs at 640 uM GlcN6P [s⁻¹] |
| --- | --- |
| AUAAAAGCGCCAGUACUACAGAAAUGUAGUUGACGAGGAGGAGGUUUAUCGAAUUUUCGGCGGAUGCCGCCAAA [A14U U69G] | 0.00177 ± 0.00094 |
| AUAAAAGCGCCAUAACUACAGAAAUGUAGUUGACGAGGAGGAGGUUUAUCGAAUGUUCGGCGGAUGACUCCAAA [G13U U55G C67A] | 3.1e-05 ± 1.8e-05 |
| AUAAAAGCGCCAGUACUACAGAAAUGUAGUUGACGAGGAGGAGGUUUAUGGAAUUUUCGCCGGAUGCCUCCAAA [A14U C50G G60C] | 3.7e-05 ± 3e-05 |
| AUAAAAGCGCCAUAACUACAGAAAUGUAGUUGACGAGGAGGAGGUGUAUCGCAUUUUCGGCGGAUGUCUGCAAA [G13U U46G A52C C67U C70G] | 3.86e-05 ± 2.5e-05 |
| AUAAAAGCGCCAGCACUACAGAAAUGUAGUUGACGAGGAGGAGGUUUAUCGAAUUUUCGGCGGAUCCCUCCAAA [A14C G66C] | 2.17e-05 ± 1.8e-05 |
| AUAAAAGCGCCAGUACUACAGAAAUGUAGUUGACGAGGAGGAGGUUUAUCGAAUAUUCGGCGGAUGCCACCAAA [A14U U55A U69A] | 2.84e-05 ± 1.5e-05 |
| AUAAAAGCGCCAUAACUACAGAAAUGUAGUUGACGAGGAGGAGGUUUAUCGAAUUUUCGGCGGAGGGCUCCAAA [G13U U65G C67G] | 3.07e-05 ± 2.5e-05 |
| AUAAAAGCGCCAGGACUACAGAAAUGUAGUUGACGAGGAGGAGGUUUAUCGUGUUUUCGGCGGAUGCCUCCAAA [A14G A52U A53G] | 2.78e-05 ± 1.7e-05 |
| AUAAAAGCGCCAGCACUACAGAAAUGUAGUUGACGGGGAGGAGGUUUAUCGAAUUUUCGGCGGAUGCCACCAAA [A14C A36G U69A] | 3.39e-05 ± 2.2e-05 |
| AUAAAAGCGCCAGUACUACAGAAAUGUAGUUGACGAGGAGGAGGUUUAUCGAAUUUACGGCGGAUGCCUCCAAA [A14U U57A] | 2.12e-05 ± 1.6e-05 |
| AUAAAAGCGCCAGGACUACAGAAAUGUAGUUGACGAGGAGGAGGUUUAUCGACUUUUCGGCGGACGCCUUCAAA [A14G A53C U65C C70U] | 2.61e-05 ± 2.6e-05 |
| AUAAAAGCGCCAGACCUACAGAAAUGUAGUUGACGAGGAGGGGGUUUAUCGAAUUUUCGGCGGAUGCCUGCAAA [A15C A42G C70G] | 2.97e-05 ± 2e-05 |
| AUAAAAGCGCCAGUACUACAGAAAUGUAGUUCACGAGGAGGAGGUUUAUCGAAUUUUCGGCGGAUGCCUCAAAA [A14U G32C C71A] | 3.83e-05 ± 3.5e-05 |
| AUAAAAGCGCCAUAACUACAGAAAUGUAGUUGACGAGGAGGAGGUUUAUCGAAUUUUCGGCGGAUGCCACCAAA [G13U U69A] | 2.6e-05 ± 1.3e-05 |
| AUAAAAGCGCCAGCAGUACAGAAAUGUAGUUGACGAGGAGGAGGUUUAUCGAAUUUUUGGCGGAUGCCUCCAAA [A14C C16G C58U] | 2.97e-05 ± 2.7e-05 |

Variants of: B1
Experiment: self-cleavage kobs at 2500 uM GlcN6P; higher = faster cleavage; RNA array
Conditions: with glucosamine-6-phosphate
In short: as §1

| Variant | self-cleavage kobs at 2500 uM GlcN6P [s⁻¹] |
| --- | --- |
| AUAAAAGCGCCAGCACUACAGAAAUGUAGUUGACGAGGAGGAGGUUUAUCGAAUUUUUGGCGGAUGCCUCCAAA [A14C C58U] | 1.38e-05 ± 1.2e-05 |
| AUAAAAGCGCCAGGACUACAGAAAUGUAGUUGACGUGGAGGAGGUUUAUCGAAUUUUCGGCGGAUGCGUCCAAA [A14G A36U C68G] | 3.11e-05 ± 2.7e-05 |
| AUAAAAGCGCCAUAACUACAGAAAUGUAGUUGACGAGGAGGAGGUGUAUCGCAUUUUCGGCGGAUGUCUGCAAA [G13U U46G A52C C67U C70G] | 2.61e-05 ± 2.6e-05 |
| AUAAAAGCGCCAGCAGUACAGAAAUGUAGUUGACGAGGAGGAGGUUUAUCGAAUUUUUGGCGGAUGCCUCCAAA [A14C C16G C58U] | 2.25e-05 ± 1.6e-05 |

Variants of: B1
Experiment: self-cleavage kobs at 160 uM GlcN6P; higher = faster cleavage; RNA array
Conditions: with glucosamine-6-phosphate
In short: as §1

| Variant | self-cleavage kobs at 160 uM GlcN6P [s⁻¹] |
| --- | --- |
| AUAAAAGCGCCAUAACUACAGAAAUGUAGUUGACGAGGAGGAGGUUUACAGAAUUUUCAGCGGAUGCCUGCAAA [G13U U49C C50A G59A C70G] | 2.57e-05 ± 2.2e-05 |
| AUAAAAGCGCCAGGACUACAGAAAUGUAGUUGACGUGGAGGAGGUUUAUCGAAUUUUCGGCGGAUGCGUCCAAA [A14G A36U C68G] | 2.15e-05 ± 2.1e-05 |
